In patent publication US20250052751A1, “COMPOSITIONS AND METHODS FOR DIAGNOSING AUTOIMMUNE AQUAPORINOPATHY” (The Regents of the University of California, priority 2023, published 2025):
Results are given in words; binding and its absence hold for the method and conditions named. Some results given as binding are weak or reduced against the parent protein; the word gives no strength.

The chains behind the UniProt entries cited, without tags or fusion partners. Where a name states a change or a piece, a line headed by the entry shows the natural chain unless it says otherwise.
UniProt P14434: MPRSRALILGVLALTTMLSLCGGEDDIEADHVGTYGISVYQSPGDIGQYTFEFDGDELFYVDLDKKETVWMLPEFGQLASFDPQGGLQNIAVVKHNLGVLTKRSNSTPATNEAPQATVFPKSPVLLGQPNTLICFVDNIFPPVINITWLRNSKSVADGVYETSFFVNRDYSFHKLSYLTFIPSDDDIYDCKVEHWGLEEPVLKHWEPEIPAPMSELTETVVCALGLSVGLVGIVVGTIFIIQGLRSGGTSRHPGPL

Columns and labels:
[1] = biological target: MHC class II I-A^b molecules purified by affinity chromatography (mouse) (UniProt P14434); experiment: competitive binding assay, purified I-A^b
[2] = biological target: MHC class II I-A^b molecules purified by affinity chromatography (mouse) (UniProt P14434); experiment: competitive binding assay, purified I-A^b, radiolabeled competitor peptide
[3] = biological target: MHC class II I-A^b molecules purified by affinity chromatography (mouse) (UniProt P14434); experiment: peptide binding to purified MHC II molecules, biochemical

Measured: binding

LYLVTPPSVVGGLGVT [AQP4 p133-149]
binds: all assays above
